Measurements as given in publication PMC8744954.
Results are given in words; binding and its absence hold for the method and conditions named.

The chains behind the UniProt entries cited, without tags or fusion partners.
UniProt P01100: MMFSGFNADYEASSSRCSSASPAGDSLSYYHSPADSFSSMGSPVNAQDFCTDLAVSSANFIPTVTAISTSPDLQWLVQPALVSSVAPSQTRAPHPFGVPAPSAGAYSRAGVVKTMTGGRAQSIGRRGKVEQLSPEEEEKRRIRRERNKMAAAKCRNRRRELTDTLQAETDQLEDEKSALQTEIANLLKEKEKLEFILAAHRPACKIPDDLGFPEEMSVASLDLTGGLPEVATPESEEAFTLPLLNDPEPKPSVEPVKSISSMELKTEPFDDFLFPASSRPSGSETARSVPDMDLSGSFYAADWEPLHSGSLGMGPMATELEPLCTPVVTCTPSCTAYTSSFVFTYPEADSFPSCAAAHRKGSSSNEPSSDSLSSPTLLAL

Target: Fos with C-terminal GST-E-coil tag (control feature on the array) (human) (UniProt P01100)
Experiment: SPR; NAPPA-SPRi: p53 proteins with GST-E-coil translated in situ and captured by K-coil peptide on a gold slide; purified full-length MDM2 20 μg/mL injected at 3 μL/s; running buffer 1x PBS, 1% Tween 20; 1:1 fit with Scrubber 2.0; apparent constants; only the binder purified

binding: no binding (tested: 20 μg/mL)
Substance: MDM2, full-length purified recombinant (from UniProt Q00987 1-491)
